Measured values: the supplement of paper PMC10849652
This is one part of the list.

Chains of the proteins cited; added tags and fusions are not shown. Lines headed by an entry give the natural chain unless they say otherwise; changes in a name come on top.
UniProt P07910: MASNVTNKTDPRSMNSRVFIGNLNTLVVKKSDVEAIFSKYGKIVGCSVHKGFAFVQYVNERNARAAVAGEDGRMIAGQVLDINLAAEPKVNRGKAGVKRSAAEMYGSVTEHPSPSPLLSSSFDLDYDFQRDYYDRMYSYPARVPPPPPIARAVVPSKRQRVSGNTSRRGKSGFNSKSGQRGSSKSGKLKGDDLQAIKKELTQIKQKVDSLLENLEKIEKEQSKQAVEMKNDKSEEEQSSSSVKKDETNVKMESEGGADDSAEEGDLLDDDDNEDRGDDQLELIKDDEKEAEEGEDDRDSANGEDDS
UniProt Q53GQ0: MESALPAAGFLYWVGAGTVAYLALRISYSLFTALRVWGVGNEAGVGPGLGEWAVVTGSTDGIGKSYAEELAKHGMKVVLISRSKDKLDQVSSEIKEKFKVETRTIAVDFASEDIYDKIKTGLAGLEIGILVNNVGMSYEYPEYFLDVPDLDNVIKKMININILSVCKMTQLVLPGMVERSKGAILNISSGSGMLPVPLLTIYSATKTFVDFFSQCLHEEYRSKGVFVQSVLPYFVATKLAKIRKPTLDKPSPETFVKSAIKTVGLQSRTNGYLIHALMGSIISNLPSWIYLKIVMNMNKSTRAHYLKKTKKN
UniProt O43390: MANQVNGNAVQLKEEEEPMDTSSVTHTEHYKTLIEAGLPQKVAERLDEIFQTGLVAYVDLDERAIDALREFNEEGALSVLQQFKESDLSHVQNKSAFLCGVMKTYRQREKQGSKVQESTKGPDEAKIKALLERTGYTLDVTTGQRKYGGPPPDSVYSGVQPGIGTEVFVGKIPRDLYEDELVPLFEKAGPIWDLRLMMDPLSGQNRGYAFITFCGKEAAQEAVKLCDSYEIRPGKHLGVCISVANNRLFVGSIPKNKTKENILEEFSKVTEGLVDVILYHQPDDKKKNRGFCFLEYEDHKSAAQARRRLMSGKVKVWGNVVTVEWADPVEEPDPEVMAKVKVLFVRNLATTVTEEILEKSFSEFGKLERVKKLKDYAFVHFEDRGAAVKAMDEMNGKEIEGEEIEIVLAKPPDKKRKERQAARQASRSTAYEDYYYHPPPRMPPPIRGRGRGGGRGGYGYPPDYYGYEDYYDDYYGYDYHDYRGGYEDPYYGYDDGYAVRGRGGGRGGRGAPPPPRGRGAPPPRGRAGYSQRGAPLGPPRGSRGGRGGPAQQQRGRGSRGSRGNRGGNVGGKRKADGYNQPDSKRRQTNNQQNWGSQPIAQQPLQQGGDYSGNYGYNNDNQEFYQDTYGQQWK
UniProt O75146: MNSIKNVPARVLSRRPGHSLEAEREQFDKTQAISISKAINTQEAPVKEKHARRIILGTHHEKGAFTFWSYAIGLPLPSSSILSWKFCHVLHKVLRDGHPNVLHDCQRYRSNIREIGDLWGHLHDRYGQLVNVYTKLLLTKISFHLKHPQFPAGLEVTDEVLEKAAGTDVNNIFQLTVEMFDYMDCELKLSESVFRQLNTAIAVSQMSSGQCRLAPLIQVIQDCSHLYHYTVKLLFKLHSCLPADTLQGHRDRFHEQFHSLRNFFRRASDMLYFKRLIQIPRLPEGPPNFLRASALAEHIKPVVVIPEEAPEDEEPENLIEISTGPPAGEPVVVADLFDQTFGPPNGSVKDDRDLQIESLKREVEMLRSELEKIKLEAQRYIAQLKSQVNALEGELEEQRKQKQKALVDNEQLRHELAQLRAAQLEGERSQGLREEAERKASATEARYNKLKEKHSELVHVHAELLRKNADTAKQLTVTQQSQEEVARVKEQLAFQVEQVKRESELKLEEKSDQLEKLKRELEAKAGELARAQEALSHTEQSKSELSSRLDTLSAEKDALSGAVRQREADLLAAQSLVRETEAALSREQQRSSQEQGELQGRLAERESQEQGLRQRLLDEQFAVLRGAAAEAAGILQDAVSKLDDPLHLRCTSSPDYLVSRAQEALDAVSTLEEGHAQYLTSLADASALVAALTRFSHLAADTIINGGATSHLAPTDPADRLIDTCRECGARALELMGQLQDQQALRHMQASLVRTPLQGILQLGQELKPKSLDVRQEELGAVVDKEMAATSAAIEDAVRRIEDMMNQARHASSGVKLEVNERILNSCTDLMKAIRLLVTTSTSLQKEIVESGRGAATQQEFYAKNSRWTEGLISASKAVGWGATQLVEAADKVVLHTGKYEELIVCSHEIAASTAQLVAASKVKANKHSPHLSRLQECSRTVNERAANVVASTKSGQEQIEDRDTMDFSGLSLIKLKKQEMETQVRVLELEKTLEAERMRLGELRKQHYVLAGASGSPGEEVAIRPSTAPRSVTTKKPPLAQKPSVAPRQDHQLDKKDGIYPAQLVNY
UniProt Q9BUJ2: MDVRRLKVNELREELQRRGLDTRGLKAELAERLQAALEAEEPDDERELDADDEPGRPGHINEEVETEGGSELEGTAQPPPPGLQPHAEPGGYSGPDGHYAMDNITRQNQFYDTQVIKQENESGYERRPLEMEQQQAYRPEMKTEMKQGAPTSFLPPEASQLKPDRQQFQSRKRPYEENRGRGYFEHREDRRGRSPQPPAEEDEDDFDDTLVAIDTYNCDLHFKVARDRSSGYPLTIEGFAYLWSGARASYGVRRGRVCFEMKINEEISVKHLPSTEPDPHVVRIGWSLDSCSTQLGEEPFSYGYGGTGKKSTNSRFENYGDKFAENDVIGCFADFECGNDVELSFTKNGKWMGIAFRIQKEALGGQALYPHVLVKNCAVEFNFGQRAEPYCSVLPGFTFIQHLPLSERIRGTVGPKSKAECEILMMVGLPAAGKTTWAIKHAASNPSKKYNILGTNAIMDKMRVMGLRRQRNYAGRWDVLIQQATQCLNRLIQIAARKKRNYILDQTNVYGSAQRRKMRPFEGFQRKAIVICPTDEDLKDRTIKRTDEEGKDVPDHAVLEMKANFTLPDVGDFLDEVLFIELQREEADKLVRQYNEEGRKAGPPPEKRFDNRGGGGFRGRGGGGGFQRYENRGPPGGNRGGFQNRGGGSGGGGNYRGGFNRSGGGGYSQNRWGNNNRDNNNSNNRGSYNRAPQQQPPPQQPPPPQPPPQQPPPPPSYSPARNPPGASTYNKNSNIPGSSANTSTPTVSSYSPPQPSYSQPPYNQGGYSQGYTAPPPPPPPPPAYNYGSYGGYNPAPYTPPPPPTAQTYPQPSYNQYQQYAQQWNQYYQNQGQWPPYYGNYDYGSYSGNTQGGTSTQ
UniProt Q53FT3: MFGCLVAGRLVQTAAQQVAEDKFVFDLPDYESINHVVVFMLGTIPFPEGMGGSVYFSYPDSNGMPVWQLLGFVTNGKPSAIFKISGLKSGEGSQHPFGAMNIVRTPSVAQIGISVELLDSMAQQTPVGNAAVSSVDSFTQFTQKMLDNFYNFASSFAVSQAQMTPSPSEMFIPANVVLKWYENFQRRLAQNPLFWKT
UniProt Q9BX68: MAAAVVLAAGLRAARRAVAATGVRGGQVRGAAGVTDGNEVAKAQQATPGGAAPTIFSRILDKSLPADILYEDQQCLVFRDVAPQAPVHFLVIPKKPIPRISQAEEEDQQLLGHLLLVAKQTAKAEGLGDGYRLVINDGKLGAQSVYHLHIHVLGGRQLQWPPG
UniProt O00291: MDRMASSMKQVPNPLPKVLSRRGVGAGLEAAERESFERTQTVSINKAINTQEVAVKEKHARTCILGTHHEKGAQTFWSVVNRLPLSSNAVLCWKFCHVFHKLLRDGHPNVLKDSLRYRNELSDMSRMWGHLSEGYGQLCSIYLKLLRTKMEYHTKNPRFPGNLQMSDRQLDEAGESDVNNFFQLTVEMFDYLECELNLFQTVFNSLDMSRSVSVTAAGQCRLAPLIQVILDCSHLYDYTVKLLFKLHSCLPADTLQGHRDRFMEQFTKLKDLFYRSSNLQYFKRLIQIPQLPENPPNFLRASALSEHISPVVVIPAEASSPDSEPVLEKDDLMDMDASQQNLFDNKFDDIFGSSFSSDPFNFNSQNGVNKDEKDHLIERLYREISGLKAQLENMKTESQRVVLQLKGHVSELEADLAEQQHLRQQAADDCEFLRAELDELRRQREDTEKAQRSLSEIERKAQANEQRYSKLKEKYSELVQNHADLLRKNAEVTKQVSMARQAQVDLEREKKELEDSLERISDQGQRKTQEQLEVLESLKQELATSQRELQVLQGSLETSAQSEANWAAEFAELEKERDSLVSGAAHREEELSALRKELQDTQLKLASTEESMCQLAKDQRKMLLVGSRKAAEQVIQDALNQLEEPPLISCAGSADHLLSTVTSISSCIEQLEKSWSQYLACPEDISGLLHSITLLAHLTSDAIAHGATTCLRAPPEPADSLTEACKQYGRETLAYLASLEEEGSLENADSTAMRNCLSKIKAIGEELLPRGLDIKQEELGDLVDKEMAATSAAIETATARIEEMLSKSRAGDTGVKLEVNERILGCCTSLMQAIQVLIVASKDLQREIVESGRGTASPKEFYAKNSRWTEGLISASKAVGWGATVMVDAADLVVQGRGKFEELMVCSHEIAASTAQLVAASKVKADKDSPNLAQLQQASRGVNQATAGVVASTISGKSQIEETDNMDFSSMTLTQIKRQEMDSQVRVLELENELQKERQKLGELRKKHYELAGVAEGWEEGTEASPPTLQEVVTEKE
UniProt P30519: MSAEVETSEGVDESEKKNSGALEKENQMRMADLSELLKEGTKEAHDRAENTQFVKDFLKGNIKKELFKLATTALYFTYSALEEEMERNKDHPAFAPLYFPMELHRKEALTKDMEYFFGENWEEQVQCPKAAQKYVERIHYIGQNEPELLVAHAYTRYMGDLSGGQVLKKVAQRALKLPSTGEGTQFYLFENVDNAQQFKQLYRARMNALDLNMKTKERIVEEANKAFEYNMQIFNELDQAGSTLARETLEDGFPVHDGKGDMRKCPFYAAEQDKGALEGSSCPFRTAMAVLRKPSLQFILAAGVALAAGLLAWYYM
UniProt Q9NQG7: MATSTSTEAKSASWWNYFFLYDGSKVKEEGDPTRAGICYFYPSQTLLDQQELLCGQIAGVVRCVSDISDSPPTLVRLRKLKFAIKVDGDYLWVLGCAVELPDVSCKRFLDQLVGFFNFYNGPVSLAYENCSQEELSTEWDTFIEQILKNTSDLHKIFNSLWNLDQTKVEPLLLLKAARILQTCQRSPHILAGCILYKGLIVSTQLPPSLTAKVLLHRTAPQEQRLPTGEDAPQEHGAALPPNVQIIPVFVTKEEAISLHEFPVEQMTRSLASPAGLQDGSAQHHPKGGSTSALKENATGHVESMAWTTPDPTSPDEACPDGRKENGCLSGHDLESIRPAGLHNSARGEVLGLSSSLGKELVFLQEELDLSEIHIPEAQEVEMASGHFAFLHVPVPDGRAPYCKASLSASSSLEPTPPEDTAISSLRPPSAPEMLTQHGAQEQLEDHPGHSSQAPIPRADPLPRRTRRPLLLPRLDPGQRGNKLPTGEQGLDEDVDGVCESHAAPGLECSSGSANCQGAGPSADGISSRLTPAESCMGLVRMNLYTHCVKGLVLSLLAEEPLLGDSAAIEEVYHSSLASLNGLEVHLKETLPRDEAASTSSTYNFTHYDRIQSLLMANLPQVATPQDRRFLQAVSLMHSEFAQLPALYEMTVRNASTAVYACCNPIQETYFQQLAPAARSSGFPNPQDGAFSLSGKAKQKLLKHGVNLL
UniProt Q9Y241: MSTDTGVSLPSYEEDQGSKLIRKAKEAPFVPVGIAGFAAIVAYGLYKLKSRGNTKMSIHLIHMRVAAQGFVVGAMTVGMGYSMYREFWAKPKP
UniProt P04439, whole entry, looked up: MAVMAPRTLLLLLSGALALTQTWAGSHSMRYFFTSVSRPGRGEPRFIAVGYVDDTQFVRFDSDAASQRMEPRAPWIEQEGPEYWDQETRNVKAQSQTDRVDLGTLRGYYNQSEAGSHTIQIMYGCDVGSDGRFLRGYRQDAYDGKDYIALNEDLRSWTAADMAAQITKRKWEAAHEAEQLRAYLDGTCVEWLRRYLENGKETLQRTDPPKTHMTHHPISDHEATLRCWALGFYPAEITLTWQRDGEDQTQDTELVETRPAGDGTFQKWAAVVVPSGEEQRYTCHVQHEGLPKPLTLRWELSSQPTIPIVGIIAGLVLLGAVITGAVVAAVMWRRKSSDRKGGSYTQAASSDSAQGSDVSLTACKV

Legend:
Assay in all cases: log2 fold change, soluble protein after heating vs DMSO (PISA); higher = thermal stabilisation; K562 cells, 10 uM, 30 min; active = over 0.2 and 3.5 SD of the protein, either way, in both replicates (recomputed)
[1] = compound: CS(=O)(=O)c1ccc(-c2cnc(N)c(C(=O)Nc3ccccc3)n2)cc1
Method in brief: (§1)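 For each measurement, 10 μM compound was applied for 30 min to K562 cells at 2×10^6 cells/mL. Aliquots were heated for 3 min across 48°C-58°C, pooled, and extracted in PBS with 0.5% NP-40 at 4°C; the supernatant after 21,000xg for 90 min was soluble protein. This was quantified by TMTpro 16plex LC-MS/MS with channel sums equalised, and thermal stability was reported relative to control samples from duplicates, on a log2 fold-change scale.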

crizotinib = compound: C[C@@H](Oc1cc(-c2cnn(C3CCNCC3)c2)cnc1N)c1c(Cl)ccc(F)c1Cl [crizotinib]
Method in brief: as §1

[2] = compound: C[C@@H]1COCCN1C2=NC(=NC(=C2)C3(CC3)S(=O)(=O)C)C4=C5C=CNC5=CC=C4
Method in brief: as §1

[3] = compound: C[C@H](C1=CC=C(C=C1)C(=O)NC2=C3C=CNC3=NC=C2)N
Method in brief: as §1

gandotinib = compound: Cc1cc(Nc2cc(CN3CCOCC3)c3nc(C)c(Cc4ccc(Cl)cc4F)n3n2)n[nH]1 [gandotinib]
Method in brief: as §1

[4] = compound: Cc1cc(SCc2sc(-c3ccc(C(F)(F)F)cc3)nc2C)ccc1OCC(=O)O
Method in brief: as §1

doramapimod = compound: Cc1ccc(-n2nc(C(C)(C)C)cc2NC(=O)Nc2ccc(OCCN3CCOCC3)c3ccccc23)cc1 [doramapimod]
Method in brief: as §1

ispinesib = compound: Cc1ccc(C(=O)N(CCCN)[C@@H](c2nc3cc(Cl)ccc3c(=O)n2Cc2ccccc2)C(C)C)cc1 [ispinesib]
Method in brief: as §1

bafetinib = compound: Cc1ccc(NC(=O)c2ccc(CN3CC[C@H](N(C)C)C3)c(C(F)(F)F)c2)cc1Nc1nccc(-c2cncnc2)n1 [bafetinib]
Method in brief: as §1

[5] = compound: Cc1cccc(CC(=O)N2CCc3c2ccc(-c2cn(C)c4ncnc(N)c24)c3F)n1
Method in brief: as §1

nilotinib = compound: Cc1cn(-c2cc(NC(=O)c3ccc(C)c(Nc4nccc(-c5cccnc5)n4)c3)cc(C(F)(F)F)c2)cn1 [nilotinib]
Method in brief: as §1

[6] = compound: Cc1nc(Nc2n[nH]c3c2CN(C(=O)N[C@H](CN(C)C)c2ccccc2)C3(C)C)c2sccc2n1
Method in brief: as §1

dasatinib = compound: Cc1nc(Nc2ncc(C(=O)Nc3c(C)cccc3Cl)s2)cc(N2CCN(CCO)CC2)n1 [dasatinib]
Method in brief: as §1

[7] = compound: Cc1ncc(-c2ccnc(Nc3ccc(S(C)(=O)=O)cc3)n2)n1C(C)C
Method in brief: as §1

[8] = compound: Cn1cc(-c2ccc3c(c2)CCN3C(=O)Cc2cccc(C(F)(F)F)c2)c2c(N)ncnc21
Method in brief: as §1

[9] = compound: Cn1cc(-c2ccc3nnc(C(F)(F)c4ccc5ncccc5c4)n3n2)cn1
Method in brief: as §1

tipifarnib = compound: Cn1cncc1[C@@](N)(c1ccc(Cl)cc1)c1ccc2c(c1)c(-c1cccc(Cl)c1)cc(=O)n2C [tipifarnib]
Method in brief: as §1

mubritinib = compound: FC(F)(F)c1ccc(/C=C/c2nc(COc3ccc(CCCCn4ccnn4)cc3)co2)cc1 [mubritinib]
Method in brief: as §1

tozasertib = compound: Cc1cc(Nc2cc(N3CCN(C)CC3)nc(Sc3ccc(NC(=O)C4CC4)cc3)n2)n[nH]1 [tozasertib]
Method in brief: as §1

duvelisib = compound: C[C@H](Nc1ncnc2nc[nH]c12)c1cc2cccc(Cl)c2c(=O)n1-c1ccccc1 [duvelisib]
Method in brief: as §1

Row | Target | log2 fold change [1] | log2 fold change (crizotinib) | log2 fold change [2] | log2 fold change [3] | log2 fold change (gandotinib) | log2 fold change [4] | log2 fold change (doramapimod) | log2 fold change (ispinesib) | log2 fold change (bafetinib) | log2 fold change [5] | log2 fold change (nilotinib) | log2 fold change [6] | log2 fold change (dasatinib) | log2 fold change [7] | log2 fold change [8] | log2 fold change [9] | log2 fold change (tipifarnib) | log2 fold change (mubritinib) | log2 fold change (tozasertib) | log2 fold change (duvelisib)
1 | HNRNPC isoform 2 (UniProt P07910) | inactive: -0.176 | inactive: -0.061 | inactive: -0.239 | inactive: 0.532 | inactive: 0.197 | inactive: 0.125 | inactive: 0.088 | inactive: -0.35 | inactive: 0.159 | inactive: -0.228 | inactive: 0.054 | inactive: -0.099 | inactive: 0.425 | inactive: -0.286 | inactive: -0.431 | inactive: -0.173 | inactive: 0.596 | inactive: -0.268 |  | 
2 | HSD17B12 (UniProt Q53GQ0) | inactive: 0.046 | inactive: 0.191 | inactive: 0.012 | inactive: -0.061 | active: 0.371 | inactive: 0.055 | inactive: -0.009 | inactive: 0.243 | inactive: 0.067 | inactive: -0.039 | inactive: 0.184 | inactive: -0.039 | inactive: -0.095 | inactive: 0.002 | inactive: 0.092 | inactive: -0.02 | inactive: 0.089 | inactive: -0.018 |  | 
3 | HNRNPR (UniProt O43390) | inactive: -0.036 | inactive: -0.291 | inactive: -0.209 | inactive: 0.289 |  |  | inactive: 0.054 |  | inactive: -0.024 |  | inactive: 0.066 | inactive: -0.02 |  | inactive: 0.015 | inactive: -0.323 |  | inactive: 0.302 | inactive: -0.109 |  | 
4 | HMGCR isoform 3 (UniProt P04035) | inactive: -0.259 | inactive: 0.071 | inactive: -0.234 | inactive: -0.004 | inactive: 0.092 | inactive: -0.065 | inactive: 0.025 | inactive: 0.111 | inactive: 0.008 | inactive: 0.016 | inactive: -0.241 | inactive: 0.015 | inactive: -0.027 | inactive: -0.087 | inactive: -0.023 | inactive: -0.062 | inactive: -0.021 | inactive: 0.1 |  | 
5 | HIP1R (UniProt O75146) | inactive: 0.016 | inactive: -0.1 | inactive: 0.058 | inactive: 0.026 | inactive: -0.069 | inactive: 0.029 | inactive: 0.007 | inactive: -0.097 | inactive: -0.021 | inactive: 0.043 | inactive: -0.11 | inactive: 0.016 | inactive: -0.144 | inactive: -0.019 | inactive: 0.022 | inactive: -0.013 | inactive: -0.075 | inactive: 0.036 |  | 
6 | HMBS (UniProt F5H226) | inactive: 0.672 | inactive: -0.189 |  | inactive: 0.193 | inactive: 0.107 |  | inactive: 0.093 |  | inactive: 0.045 | inactive: -0.21 |  |  |  |  | inactive: 0.036 |  |  | inactive: -0.139 | inactive: -0.045 | 
7 | HNRNPUL1 (UniProt Q9BUJ2) | inactive: 0.007 | inactive: -0.023 | inactive: -0.016 | inactive: 0.147 | inactive: 0.049 | inactive: 0.085 | inactive: -0.025 | inactive: -0.019 | inactive: -0.011 | inactive: -0.069 | inactive: -0.032 | inactive: -0.008 | inactive: -0.061 | inactive: 0.041 | inactive: -0.03 | inactive: -0.007 | inactive: 0.059 | active: -0.231 |  | 
8 | HIKESHI (UniProt Q53FT3) | inactive: -0.007 | inactive: 0.067 | inactive: 0.182 | inactive: -0.023 | inactive: -0.033 | inactive: -0.021 | inactive: -0.013 | inactive: 0.192 | inactive: -0.003 | inactive: 0.02 | inactive: -0.062 | inactive: 0.018 | inactive: 0.079 | inactive: 0.009 | inactive: 0.043 | inactive: 0.065 | inactive: -0.043 | inactive: 0.025 |  | 
9 | HNRNPUL1 (UniProt M0R247) | inactive: -0.057 | inactive: 0.151 |  | inactive: 0.722 |  | inactive: -0.374 | inactive: -0.014 |  |  |  | inactive: 0.061 | inactive: -0.13 | inactive: 0.206 | inactive: 0.025 | inactive: -0.024 |  | inactive: 0.259 |  |  | 
10 | HINT2 (UniProt Q9BX68) | inactive: -0.011 | inactive: 0.06 |  | inactive: -0.154 | inactive: -0.07 | inactive: -0.001 | inactive: 0.049 | inactive: 0.222 | inactive: -0.015 | inactive: -0.061 | inactive: 0.086 | inactive: 0.012 | inactive: 0.086 | inactive: -0.103 | inactive: -0.024 | inactive: 0.266 | inactive: 0.105 | inactive: 0.061 | inactive: 0.162 | inactive: 0.131
11 | HIP1 (UniProt O00291) | inactive: 0.054 | inactive: -0.131 | inactive: 0.035 | inactive: -0.002 | inactive: 0.029 | inactive: 0.027 | inactive: 0 | inactive: -0.033 | inactive: -0.079 | inactive: -0.069 | inactive: -0.038 | inactive: 0.063 | inactive: 0.004 | inactive: -0.079 | inactive: -0.009 | inactive: -0.002 | inactive: -0.099 | inactive: 0.077 |  | 
12 | HRAS (UniProt P01112) | inactive: -0.064 | inactive: 0.18 | inactive: -0.129 | inactive: -0.057 | inactive: 0.068 | inactive: -0.077 | inactive: -0.032 | inactive: 0.22 | inactive: -0.033 | inactive: 0.063 | inactive: 0.109 | inactive: 0.024 | inactive: 0 | inactive: 0.003 | inactive: 0.041 | inactive: -0.007 | inactive: 0.006 | inactive: 0.033 |  | 
13 | HMOX2 (UniProt P30519) | inactive: 0.07 | inactive: -0.03 | inactive: 0.022 | inactive: 0.008 | inactive: 0.017 | inactive: 0.041 | inactive: 0.062 | inactive: -0.028 | inactive: 0.006 | inactive: 0.048 | inactive: 0.002 | inactive: -0.08 | inactive: -0.141 | inactive: -0.006 | inactive: 0.067 | inactive: 0.003 | active: 0.27 | inactive: 0.062 |  | 
14 | HPS4 isoform 4 (UniProt Q9NQG7) |  | inactive: 0.056 |  |  | inactive: 0.282 | inactive: 0.116 | inactive: 0.051 | inactive: 0.199 |  | inactive: 0.244 | inactive: -0.149 | inactive: 0.059 | inactive: -0.394 | inactive: -0.03 |  | inactive: 0.157 |  |  | inactive: -0.048 | inactive: 0.062
15 | HIGD1A isoform 2 (UniProt Q9Y241) | inactive: 0.182 | inactive: 0.25 |  |  |  |  | inactive: -0.15 | inactive: -0.075 | inactive: -0.019 |  | inactive: 0.001 | inactive: 0.107 |  | inactive: -0.047 |  | inactive: 0.179 |  | inactive: -0.177 |  | 
16 | HLA-A isoform 2 (UniProt P04439) |  |  |  | inactive: 0.262 |  | inactive: -0.012 |  |  |  |  |  |  | inactive: -0.034 |  | inactive: -0.086 |  |  |  |  | inactive: -0.024

Quoted from the listing.
Entry for HIGD1A isoform 2 (UniProt Q9Y241) under log2 fold change (bafetinib): inactive: -0.019
Entry for HINT2 (UniProt Q9BX68) under log2 fold change (mubritinib): inactive: 0.061
